This is one part of the list. The main result of the screen is listed elsewhere. These columns were measured beside it and carry no call. The list favours compounds with an active or inconclusive main result. Words in brackets tell the shape of the fitted curve; partial curves, single points and poor fits give uncertain potencies.
Experiment: qHTS Assay for Lipid Storage Modulators in Drosophila S3 Cells;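 on cell number change: cells counted by Cell Tracker Red CMTPX staining in the red channel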
Details: BODIPY lipid droplet fluorescence, 18-24 h; for cell number change: measured here: cell count max response, cells fed with added oleic acid
Procedure, shortened: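 Drosophila S3 cells got compounds at several concentrations plus oleic acid (400 uM solution). Laser-scanning cytometry with 488 nm excitation read lipid droplets at 500-530 nm and cells at 575-640 nm. Percent activity was relative to 20 uM Triacsin C.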

[1] = measured here: cell number channel AC50, cells fed with added oleic acid
[2] = measured here: lipid fluorescence (Fed channel) AC50, cells fed with added oleic acid

Structure (SMILES)	cell number change [%]	AC50 [1]	AC50 [2]
N#Cc1ccccc1S(=O)(=O)N1CCN(CC(O)CN2CCOCC2)CC1 (stereo unspecified)	-13.6	0.13 µM [falling, partial curve, poor fit]	0.366 µM [falling, partial curve]
O=C(c1ccco1)c1cn(CC(=O)N2CCCCCC2)c2ccccc12	-23		6.51 µM [falling, single point]
COc1ccc(CCNCc2csc3nc4ccccc4n23)cc1OC	-46.6	25.9 µM [falling, single point]	23.1 µM [falling, partial curve]
CC(C)OCCCNc1ncc2c(n1)CC(c1ccc(N(C)C)cc1)CC2=O (stereo unspecified)	2.43		6.51 µM [rising, partial curve]
Cn1c(=O)c2c(nc(Oc3ccccc3Br)n2C)n(C)c1=O	26.6		29.1 µM [rising, single point]
Cn1c(=NC(=O)COc2ccccc2)sc2cc(F)cc(F)c21	4.41	0.0651 µM [rising, full curve, poor fit]	0.259 µM [rising, full curve]
Cc1ccc(C(C(=O)NC2CCCC2)N(C(=O)c2csnn2)C2CCCC2)o1 (stereo unspecified)	-4.15		
CCCc1cc(C(=O)Nc2cnn(Cc3ccc(F)cc3)c2)no1	19.9		4.61 µM [rising, partial curve]
CC(C)NC(=S)N1CCN(S(=O)(=O)c2cccc(C(F)(F)F)c2)CC1	4.31		
NC(=O)c1ccc[n+](CC(=O)OCCC23CC4CC(CC(C4)C2)C3)c1	-10.9		0.411 µM [falling, full curve, poor fit]
CCN1CCN(c2nc(N)c([N+](=O)[O-])c(Nc3ccc(C)cc3)n2)CC1	47.8	16.4 µM [rising, single point]	0.517 µM [falling, single point]
Cc1ccc(C(=O)c2ncc[nH]2)cc1	25.5	0.411 µM [rising, full curve, poor fit]	0.731 µM [rising, partial curve, poor fit]
CN(NC(=O)c1ccc(Cl)cc1)c1ncc(C(F)(F)F)cc1Cl	17.7		2.06 µM [rising, full curve, poor fit]
CC(C)C(=O)N1CCN(c2ccc(NC(=S)NC(=O)c3cc4ccccc4o3)cc2)CC1	43.8	29.1 µM [rising, single point]	29.1 µM [rising, single point]
O=C(CSc1nnc(CCCN2C(=O)c3cccc4cccc(c34)C2=O)n1-c1ccccc1)NCCCN1CCOCC1			9.2 µM [rising, partial curve]
O=C(Nc1nnc(-c2ccccc2Cl)o1)c1ccc(S(=O)(=O)N2CCCCCC2)cc1	-15.3		
CC1Cc2nc(SCC(=O)N3CCCC3)n(C)c(=O)c2S1 (stereo unspecified)	49.8		
CCCSc1nc2c(cnn2-c2ccc(F)cc2)c(=O)[nH]1	6.03		6.51 µM [falling, single point]
O=C(CSc1n[nH]c(-c2cccnc2)n1)Nc1ccnc2ccccc12	0.84		
CCOC(=O)CSc1nc2ccccc2c(=O)n1CCCCCC(=O)NCc1ccco1	0.982		1.64 µM [rising, partial curve]
Cc1cccc(NC(=O)CN(C)S(=O)(=O)c2ccc3c(c2)n(C)c(=O)c(=O)n3C)c1C	-39.5	14.6 µM [falling, partial curve, poor fit]	
CC(=O)Nc1c2c(nn1-c1cccc(Cl)c1)CS(=O)C2 (stereo unspecified)	17.1	5.17 µM [falling, single point]	6.51 µM [falling, single point]
CC1CCN(Cc2c(C(=O)N/N=C/c3ccccc3O)nnn2-c2nonc2N)CC1	22.5		29.1 µM [falling, single point]
CCCCn1c(N)c(N(CCOC)C(=O)CSCc2ccccc2C)c(=O)[nH]c1=O	-11.9		2.59 µM [falling, partial curve, poor fit]
Cc1ccc(S(=O)(=O)/N=c2\ccc(Cl)cn2C(F)F)cc1	-7.54	4.61 µM [falling, single point]	6.51 µM [falling, single point]
CCc1ccc(-c2csc(NC(=O)COC(=O)CCc3nc4ccccc4s3)n2)cc1	-17		3.66 µM [rising, single point]
CCCCc1ccc(NC(=S)N2CCN(C(=O)c3ccco3)CC2)cc1	-9.25		3.66 µM [rising, single point]
COc1cccc(-n2c(CNc3ccc(F)cc3)nnc2SCC(N)=O)c1	-81.9	23.1 µM [falling, partial curve]	29.1 µM [falling, single point]

Structure (SMILES)	cell number change [%]	AC50 [1]	AC50 [2]
COc1ccc(C2c3ccc(O)cc3Oc3ncn(Cc4ccco4)c(=N)c32)cc1 (stereo unspecified)	-7.61		25.9 µM [falling, single point]
CCCCOc1ccc(/C=N/NC(=O)c2nnn(-c3nonc3N)c2C)cc1	45.9	29.1 µM [rising, single point]	29.1 µM [rising, single point]
Clc1ccc(OCCn2ccnc2)c2ccccc12	-5.18	0.00411 µM [falling, full curve, poor fit]	1.3 µM [rising, full curve]
COc1ccccc1NS(=O)(=O)c1ccc(C(=O)Nc2ncccc2O)cc1	-64.1	25.9 µM [falling, single point]	1.84 µM [falling, partial curve]
CN(CC(=O)Nc1ccc(F)cc1)C(=O)COC(=O)/C=C/c1cccs1	47.1	14.6 µM [rising, partial curve]	
COc1cccc(CNCCc2c[nH]c3ccccc23)c1OCc1ccc(F)cc1	-62	32.6 µM [falling, single point]	
Cc1[nH]c2ccc(C(=O)OC(C)C(=O)NC3CCCCC3C)cc2c1C (stereo unspecified)	-36.8	29.1 µM [falling, single point]	18.4 µM [falling, single point]
CCn1cc(C(=O)Nn2cnnc2)c(=O)c2ccc(C)nc21	125		6.51 µM [falling, single point]
CC(NC(=O)COC(=O)c1ccc(N(C)C)cc1)c1ccccc1 (stereo unspecified)	-5.97		0.116 µM [rising, partial curve, poor fit]
COC(=O)COc1ccc(/C=C2/SC(=O)N(CC(=O)N3CCCC3)C2=O)cc1Br		2.91 µM [rising, single point]	
COc1cccc(CN(C(=O)c2ccccc2)C2CCS(=O)(=O)C2)c1 (stereo unspecified)	-0.763		
COc1ccc(N(CC(=O)N/N=C/c2ccco2)S(=O)(=O)c2ccccc2)cc1Cl	-27.6		29.1 µM [falling, single point]
CCOC(=O)C1(C)NC(c2ccc(N(C)C)cc2)C2C(=O)N(c3ccc(OC)cc3)C(=O)C21 (stereo unspecified)	1.47		0.0058 µM [falling, full curve, poor fit]
CC(=O)[C@@]1(O)C(C)CC2C3C=C(C)C4=Cc5c(cnn5-c5ccccc5)C[C@]4(C)C3C(O)C[C@@]21C (stereo partly specified)	252	29.1 µM [rising, single point]	16.4 µM [falling, partial curve]
Cc1ccc(Nc2nc(N3CCOCC3)nc(N3CCOCC3)n2)cc1C	30.6	5.8 µM [rising, full curve, poor fit]	
O=C(O)c1ccc(CNCc2ccccc2Cl)cc1	1.47		0.184 µM [falling, full curve, poor fit]
Cc1cccc(-c2nc(CC(=O)Nc3cccc(S(=O)(=O)NC4=NCCC4)c3)cs2)c1	-1.81		1.64 µM [rising, partial curve]
CC1Oc2ccccc2N(Cc2ccc(F)cc2)C1=O (stereo unspecified)	3.97		6.51 µM [rising, single point]
O=C(CSc1ccc(Br)cc1)NCC1CCCO1 (stereo unspecified)	-24.5	0.58 µM [rising, single point]	29.1 µM [falling, partial curve]
N#Cc1c(C(F)(F)F)cc(-c2ccccc2)nc1SCCN1CCOCC1	16.5		14.6 µM [rising, single point]
CC(C)(C)OC(=O)N1CCC(c2c(C(=O)N3CCN(C(=O)c4ccco4)CC3)cnn2-c2ccc(F)cc2)CC1	-13.5		29.1 µM [falling, single point]
CCn1c(SCC(=O)Nc2ccc(OC)c(S(=O)(=O)N3CCCCC3)c2)nnc1C1CC1			0.206 µM [rising, partial curve, poor fit]
COc1ccc(-c2noc(CSc3ccccc3)n2)cc1OC	-32.8	0.082 µM [falling, full curve, poor fit]	0.146 µM [falling, partial curve]
CC[C@@]12C(=O)N(c3cccc(Br)c3)C(=O)N1[C@H](c1cccc(C)c1)[C@@H]1C(=O)N(Cc3ccccc3)C(=O)[C@@H]12	-33.4	10.3 µM [falling, single point]	29.1 µM [falling, single point]
NS(=O)(=O)c1ccc(NC(=O)COC(=O)CCC2CCCCC2)cc1	20.1		13 µM [rising, partial curve]
O=C(NCCc1ccccc1)C1CCN(C(=O)c2ccc(F)cc2)CC1	1.85		
NC(=O)CSc1ncnc2c1nnn2Cc1ccc(F)cc1	24		

Pulled by compound from the entries so far:
Structure (SMILES)	cell number change [%]	AC50 [1]	AC50 [2]
COc1ccccc1NS(=O)(=O)c1ccc(C(=O)Nc2ncccc2O)cc1	-64.1	25.9 µM [falling, single point]	1.84 µM [falling, partial curve]
COc1cccc(CN(C(=O)c2ccccc2)C2CCS(=O)(=O)C2)c1 (stereo unspecified)	-0.763		
O=C(CSc1ccc(Br)cc1)NCC1CCCO1 (stereo unspecified)	-24.5	0.58 µM [rising, single point]	29.1 µM [falling, partial curve]

Reference: PubChem BioAssay AID2685 (National Center for Advancing Translational Sciences (NCATS), 2010)
